Laboratory results published in paper PMC12313710, “Targeting the BAG2/CHIP axis promotes gastric cancer apoptosis by blocking apoptosome assembly” (Frontiers in Immunology, 2025).
Results are given in words; binding and its absence hold for the method and conditions named. In cells and extracts the contact can be indirect. Some results given as binding are weak or reduced against the parent protein; the word gives no strength.

Sequences of proteins named here, by UniProt entry; tags and fusion partners are left off.
UniProt O14727: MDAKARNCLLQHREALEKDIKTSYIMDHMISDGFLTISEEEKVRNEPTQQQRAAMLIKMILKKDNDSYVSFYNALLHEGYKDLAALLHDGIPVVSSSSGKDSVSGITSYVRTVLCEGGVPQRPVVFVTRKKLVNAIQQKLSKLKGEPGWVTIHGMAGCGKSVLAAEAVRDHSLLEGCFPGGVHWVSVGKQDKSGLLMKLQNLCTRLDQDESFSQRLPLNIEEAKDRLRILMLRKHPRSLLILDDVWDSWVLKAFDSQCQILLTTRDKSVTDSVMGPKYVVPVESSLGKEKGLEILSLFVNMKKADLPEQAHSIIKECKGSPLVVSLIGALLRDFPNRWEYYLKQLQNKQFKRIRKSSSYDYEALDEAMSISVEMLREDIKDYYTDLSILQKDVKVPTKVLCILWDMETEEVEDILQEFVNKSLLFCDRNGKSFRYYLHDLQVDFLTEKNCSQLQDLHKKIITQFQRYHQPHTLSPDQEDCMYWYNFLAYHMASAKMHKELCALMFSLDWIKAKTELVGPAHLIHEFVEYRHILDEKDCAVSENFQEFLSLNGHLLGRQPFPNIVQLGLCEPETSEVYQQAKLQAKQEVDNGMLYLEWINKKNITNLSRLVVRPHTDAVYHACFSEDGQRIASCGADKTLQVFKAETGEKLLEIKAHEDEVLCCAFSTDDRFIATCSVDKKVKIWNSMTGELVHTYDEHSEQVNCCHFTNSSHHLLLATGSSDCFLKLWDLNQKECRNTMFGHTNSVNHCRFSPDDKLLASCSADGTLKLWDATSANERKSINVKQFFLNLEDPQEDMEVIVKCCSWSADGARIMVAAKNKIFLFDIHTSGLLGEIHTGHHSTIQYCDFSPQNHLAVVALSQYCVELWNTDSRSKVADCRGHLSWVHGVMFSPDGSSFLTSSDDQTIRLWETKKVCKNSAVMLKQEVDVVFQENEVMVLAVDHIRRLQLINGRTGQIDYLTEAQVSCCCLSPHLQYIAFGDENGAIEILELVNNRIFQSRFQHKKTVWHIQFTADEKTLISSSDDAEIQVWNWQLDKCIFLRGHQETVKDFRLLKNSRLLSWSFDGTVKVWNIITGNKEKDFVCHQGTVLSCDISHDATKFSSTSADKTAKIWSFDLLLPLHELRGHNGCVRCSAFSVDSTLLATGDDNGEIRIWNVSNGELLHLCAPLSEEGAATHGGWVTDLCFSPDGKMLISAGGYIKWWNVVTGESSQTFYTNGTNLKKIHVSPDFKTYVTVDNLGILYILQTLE
UniProt P99999: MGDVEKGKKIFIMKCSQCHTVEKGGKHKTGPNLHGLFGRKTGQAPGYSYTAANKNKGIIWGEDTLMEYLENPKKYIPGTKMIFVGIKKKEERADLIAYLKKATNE

Molecular target: Flag-tagged apoptotic protease-activating factor 1 (Apaf1) (UniProt O14727)
Assay: co-IP; Flag- and HA-tagged proteins co-expressed in HEK-293T; lysis in 50 mM Tris-HCl pH 7.4, 150 mM NaCl, 1 mM EDTA, 0.2% Triton X-100; anti-Flag M2 agarose, 2 h, 4°C; blots for HA and FLAG

- binding: binds
Substance: HA-tagged cytochrome C (Cytc) (from UniProt P99999 1-105)
